Test results reported in PubChem BioAssay AID485349 (National Center for Advancing Translational Sciences (NCATS), 2010).
The whole screen tested about 320,000 compounds, of which about 620 (0.19%) were called active. The shares of active, inactive and inconclusive entries below differ from those in the screen. Calls follow the shape of the dose curve; as a rule, active = well fitted activation curve with a large enough effect; inconclusive = small, poorly fitted or top-dose-only effect; inactive = no such curve, though single readings can be large or run the other way. A potency beside an inconclusive call is a rough fit, not a confirmed value.

Test: qHTS Assay for Identifying a Potential Treatment of Ataxia-Telangiectasia; also: nearly all actives have a fitted effect of over 45% in size; as to activation: % of control where 0% means no effect
Conditions: […] A-T fibroblasts, KAP-1 phosphorylation AlphaLISA, neocarzinostatin DNA damage 30 min before lysis; series mostly up to 57.5 µM; activation: at the top concentration
Procedure, shortened: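 ATM-like activity read as KAP-1 phosphorylation via AlphaLISA donor/acceptor antibody pairs after lysis and 6 hr at 25C. Cells were ATM-null patient fibroblasts ([…], hTERT), dosed 60 min, then exposed to the DSB inducer NCS for 30 min.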
Potency is read from the fitted curve at half-maximal effect.

Row | SMILES | Potency | activation
1 | COC(=O)c1sccc1NC(=O)Cc1ccc(Br)cc1 | inconclusive: 39.8 µM [activator, single point] | –
2 | O=[N+]([O-])c1ccc2nc(-c3ccncc3)[nH]c2c1 | – | inactive: -1.56%
3 | CC(Cc1cccs1)NC(=S)Nc1ccc(Cl)c(Cl)c1 (stereo not given) | – | inactive: 5.51%
4 | CCNc1nc(Oc2ccc(F)cc2)cc(C(F)(F)F)n1 | inconclusive: 31.6 µM [activator, single point] | –
5 | O=C(CCc1nnc2n(Cc3ccc(F)cc3)c(=O)c3ccccc3n12)N1CCN(c2ccccn2)CC1 | – | inactive: -1.43%
6 | CCN(CC(=O)Nc1ccc(S(=O)(=O)N2CCOCC2)cc1)Cc1ccccc1 | inconclusive: 31.6 µM [activator, partial curve] | –
7 | Cc1ccc(-n2nc3ccc(N)cc3n2)cc1Cl | inconclusive: 22.4 µM [activator, partial curve] | –
8 | CC(C)c1ccc(-c2cc(C(=O)N3CCOCC3)c3cc(Br)ccc3n2)cc1 | active: 4.47 µM | –
9 | COC(=O)CCC(=O)Nc1sc2c(c1C#N)CCCC2 | inconclusive: 39.8 µM [activator, partial curve] | –
10 | CCOC(=O)C(NC(=O)c1ccccc1)=C1C=C(C)OC(C)=C1 | inconclusive: 39.8 µM [activator, single point] | –
11 | CCOC(=O)C1=C(O)C(=O)N(Cc2ccccc2)C1 | active: 1.12 µM | –
12 | Cc1ccc(C(=O)N/N=C(/CC(=O)c2cccs2)C(F)(F)F)cc1 | – | inactive: 7.43%
13 | O=C(O)CC/C(=N\NC(=O)c1ccccc1Br)c1ccccc1 | inconclusive: 39.8 µM [activator, single point] | –
14 | Cc1cccn2c(=O)c3cc(C(=O)NCCCn4ccnc4)n(C)c3nc12 | inconclusive: 35.5 µM [activator, single point] | –
15 | CC(C)[C@H](NC(=O)OC(C)(C)C)C(=O)NCC1CCC(C(=O)N[C@@H](Cc2ccccc2)C(=O)O)CC1 (stereo not given in full) | inconclusive: 2.82 µM [activator, partial curve, poor fit] | –
16 | CC(SCc1ccccc1)C(=O)Nc1ccccc1Br (stereo not given) | inconclusive: 39.8 µM [activator, single point] | –
17 | O=C(O)c1cc(-c2ccc(N3CCOCC3)cc2)nn1-c1ccc(F)cc1F | – | inactive: 1.43%
18 | COC(=O)[C@H](Cc1ccccc1)NC(=O)NCc1cccs1 | – | inactive: -5.68%
19 | COC(=O)CSc1[nH]c2ccccc2c1[N+](=O)[O-] | inconclusive: 25.1 µM [activator, partial curve, poor fit] | –
20 | COc1ccc(Cl)cc1C(=O)NNC(=O)CCNS(=O)(=O)c1ccccc1 | inconclusive: 35.5 µM [activator, single point] | –

Single entries from the list.
Entry of CC(SCc1ccccc1)C(=O)Nc1ccccc1Br (stereo not given) under Potency: inconclusive: 39.8 µM [activator, single point]
Entry of O=C(O)CC/C(=N\NC(=O)c1ccccc1Br)c1ccccc1 under Potency: inconclusive: 39.8 µM [activator, single point]
